From paper PMC12525004, “Bacillus subtilis DinG 3′⟶5′ Exo(ribo)nuclease: A Helpmate to Mitigate Replication Stress” (International Journal of Molecular Sciences, 2025)
No constants are given. Whether binding was seen depends on the method and setting. Some binding calls cover weakened binding; strength is not graded here. For some of these results: Sequences can lack the tags named with a protein.

By UniProt entry, the sequences of proteins in these tests, tags left out.
UniProt O34996: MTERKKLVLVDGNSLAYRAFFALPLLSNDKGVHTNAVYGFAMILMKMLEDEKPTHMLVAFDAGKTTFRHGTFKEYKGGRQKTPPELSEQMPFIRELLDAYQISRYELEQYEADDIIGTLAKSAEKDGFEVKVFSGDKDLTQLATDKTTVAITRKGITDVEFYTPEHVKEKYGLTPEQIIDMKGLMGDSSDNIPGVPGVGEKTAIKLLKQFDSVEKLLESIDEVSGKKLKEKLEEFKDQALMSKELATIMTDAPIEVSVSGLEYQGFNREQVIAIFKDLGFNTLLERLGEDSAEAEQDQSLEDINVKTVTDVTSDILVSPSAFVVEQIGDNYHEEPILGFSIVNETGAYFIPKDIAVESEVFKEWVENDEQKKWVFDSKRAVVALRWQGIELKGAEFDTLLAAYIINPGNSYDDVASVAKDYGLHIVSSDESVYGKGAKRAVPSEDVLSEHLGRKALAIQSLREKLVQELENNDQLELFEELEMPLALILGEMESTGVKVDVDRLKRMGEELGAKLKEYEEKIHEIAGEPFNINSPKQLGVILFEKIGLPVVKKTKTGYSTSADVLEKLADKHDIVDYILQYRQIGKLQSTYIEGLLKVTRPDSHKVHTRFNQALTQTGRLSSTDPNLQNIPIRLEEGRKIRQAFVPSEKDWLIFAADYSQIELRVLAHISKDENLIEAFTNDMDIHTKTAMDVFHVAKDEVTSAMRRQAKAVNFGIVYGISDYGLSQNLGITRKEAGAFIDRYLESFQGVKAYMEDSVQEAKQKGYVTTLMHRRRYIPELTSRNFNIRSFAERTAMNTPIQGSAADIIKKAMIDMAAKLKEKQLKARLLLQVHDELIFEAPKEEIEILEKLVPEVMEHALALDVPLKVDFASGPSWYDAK

Assays:
[1] = molecular target: T1, DinG (B. subtilis), P54394; experiment: far-Western, overlay or dot blot; immuno-dot blot: proteins (75-300 ng) spotted on nitrocellulose, blocked with 5% skimmed milk in PBS, incubated 6 h at 4 °C with 200 ng/ml RecA in PBS, 0.5% skimmed milk powder, 0.1% Triton X-100; washed; retained RecA detected with polyclonal anti-RecA antibody; both purified; conditions: remark: other sources report otherwise
T1 chain: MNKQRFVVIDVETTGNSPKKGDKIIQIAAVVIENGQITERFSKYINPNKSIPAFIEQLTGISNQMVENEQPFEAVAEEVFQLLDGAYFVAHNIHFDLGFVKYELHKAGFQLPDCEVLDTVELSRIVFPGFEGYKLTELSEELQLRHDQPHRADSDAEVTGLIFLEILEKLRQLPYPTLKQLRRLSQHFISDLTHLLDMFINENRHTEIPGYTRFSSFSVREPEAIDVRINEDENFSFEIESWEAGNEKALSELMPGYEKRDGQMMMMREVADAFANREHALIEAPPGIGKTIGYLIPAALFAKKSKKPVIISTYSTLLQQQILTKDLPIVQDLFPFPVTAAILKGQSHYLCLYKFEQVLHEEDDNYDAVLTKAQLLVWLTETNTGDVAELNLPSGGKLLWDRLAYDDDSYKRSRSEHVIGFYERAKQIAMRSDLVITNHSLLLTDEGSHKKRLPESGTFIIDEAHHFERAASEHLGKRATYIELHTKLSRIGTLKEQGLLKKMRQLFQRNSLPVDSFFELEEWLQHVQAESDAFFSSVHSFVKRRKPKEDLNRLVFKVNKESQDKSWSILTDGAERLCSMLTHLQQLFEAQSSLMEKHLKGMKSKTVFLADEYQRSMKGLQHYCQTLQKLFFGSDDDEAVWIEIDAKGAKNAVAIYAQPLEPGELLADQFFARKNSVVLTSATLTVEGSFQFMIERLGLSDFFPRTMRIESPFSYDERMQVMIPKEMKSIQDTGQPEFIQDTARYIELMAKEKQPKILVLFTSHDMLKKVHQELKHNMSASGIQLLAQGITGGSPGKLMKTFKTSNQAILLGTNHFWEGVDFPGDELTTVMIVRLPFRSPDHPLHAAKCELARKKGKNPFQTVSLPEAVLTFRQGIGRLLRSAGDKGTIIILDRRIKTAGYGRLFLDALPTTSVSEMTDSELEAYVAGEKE

[2] = molecular target: T2, PcrA (B. subtilis), O34580; experiment: as above; conditions: remark: other sources report otherwise
T2 chain: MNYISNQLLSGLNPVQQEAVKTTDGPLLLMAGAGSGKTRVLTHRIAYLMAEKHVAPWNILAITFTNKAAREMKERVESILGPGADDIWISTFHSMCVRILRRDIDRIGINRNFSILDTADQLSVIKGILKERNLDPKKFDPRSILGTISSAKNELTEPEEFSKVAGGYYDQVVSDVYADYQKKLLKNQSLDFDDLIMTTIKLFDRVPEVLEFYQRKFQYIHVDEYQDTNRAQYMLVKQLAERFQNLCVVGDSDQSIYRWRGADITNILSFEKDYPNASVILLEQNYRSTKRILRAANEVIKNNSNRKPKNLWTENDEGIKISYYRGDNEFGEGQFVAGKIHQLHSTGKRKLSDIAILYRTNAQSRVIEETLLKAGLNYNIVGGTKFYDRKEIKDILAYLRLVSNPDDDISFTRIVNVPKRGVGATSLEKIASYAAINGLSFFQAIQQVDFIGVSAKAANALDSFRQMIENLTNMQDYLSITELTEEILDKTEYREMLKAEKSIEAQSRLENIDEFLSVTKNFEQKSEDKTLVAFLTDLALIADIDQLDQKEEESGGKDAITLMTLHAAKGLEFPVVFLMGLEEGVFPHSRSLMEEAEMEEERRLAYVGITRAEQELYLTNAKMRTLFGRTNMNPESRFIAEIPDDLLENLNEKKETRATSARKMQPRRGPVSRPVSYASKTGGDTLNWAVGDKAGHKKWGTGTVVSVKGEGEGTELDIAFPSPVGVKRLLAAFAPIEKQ

[3] = molecular target: PolA (T18 or T25 fusion) (B. subtilis) (UniProt O34996); experiment: two-hybrid; bacterial adenylate cyclase two-hybrid (T18/T25 fusions) in E. coli BTH101; co-transformants spotted on LB with 0.5 mM IPTG and X-gal, 3-4 days at 25 °C
[4] = molecular target: T3, DinG (T18 or T25 fusion) (B. subtilis) (UniProt P54394); experiment: as above
T3 sequence: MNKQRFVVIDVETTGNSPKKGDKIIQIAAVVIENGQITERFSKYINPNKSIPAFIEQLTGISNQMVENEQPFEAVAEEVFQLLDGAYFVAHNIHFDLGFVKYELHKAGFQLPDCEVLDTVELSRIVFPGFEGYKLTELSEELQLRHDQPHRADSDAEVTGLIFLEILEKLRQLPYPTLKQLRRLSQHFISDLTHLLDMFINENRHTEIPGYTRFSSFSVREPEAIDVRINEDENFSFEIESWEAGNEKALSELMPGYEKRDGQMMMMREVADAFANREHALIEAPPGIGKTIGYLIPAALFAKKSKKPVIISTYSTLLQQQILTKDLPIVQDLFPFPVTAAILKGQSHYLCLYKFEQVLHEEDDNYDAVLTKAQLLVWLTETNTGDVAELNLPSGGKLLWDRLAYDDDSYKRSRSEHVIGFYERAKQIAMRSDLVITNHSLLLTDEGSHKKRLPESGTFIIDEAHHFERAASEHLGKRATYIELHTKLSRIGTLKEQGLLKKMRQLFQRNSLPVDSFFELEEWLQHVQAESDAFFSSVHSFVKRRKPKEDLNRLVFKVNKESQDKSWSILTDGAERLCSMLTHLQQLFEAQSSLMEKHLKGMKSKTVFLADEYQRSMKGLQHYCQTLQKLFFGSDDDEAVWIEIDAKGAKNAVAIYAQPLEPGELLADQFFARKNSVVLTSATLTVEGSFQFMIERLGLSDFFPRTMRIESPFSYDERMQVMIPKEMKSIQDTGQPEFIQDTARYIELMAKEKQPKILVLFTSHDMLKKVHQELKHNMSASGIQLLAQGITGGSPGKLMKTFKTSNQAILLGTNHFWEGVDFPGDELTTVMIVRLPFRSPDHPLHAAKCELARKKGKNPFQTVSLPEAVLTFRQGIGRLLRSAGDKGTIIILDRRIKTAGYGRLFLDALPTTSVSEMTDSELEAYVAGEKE

B1: RecA, P16971 1-348 (protein)
chain: MSDRQAALDMALKQIEKQFGKGSIMKLGEKTDTRISTVPSGSLALDTALGIGGYPRGRIIEVYGPESSGKTTVALHAIAEVQQQGGQAAFIDAEHALDPVYAQKLGVNIEELLLSQPDTGEQALEIAEALVRSGAVDIVVVDSVAALVPKAEIEGDMGDSHVGLQARLMSQALRKLSGAINKSKTIAIFINQIREKVGVMFGNPETTPGGRALKFYSSVRLEVRRAEQLKQGNDVMGNKTKIKVVKNKVAPPFRTAEVDIMYGEGISKEGEIIDLGTELDIVQKSGSWYSYEEERLGQGRENAKQFLKENKDIMLMIQEQIREHYGLDNNGVVQQQAEETQEELEFEE
- binding [1]: binds
- binding [2]: binds

B2: DnaN (T18 or T25 fusion) (protein, UniProt P05649 1-378)
chain: MKFTIQKDRLVESVQDVLKAVSSRTTIPILTGIKIVASDDGVSFTGSDSDISIESFIPKEEGDKEIVTIEQPGSIVLQARFFSEIVKKLPMATVEIEVQNQYLTIIRSGKAEFNLNGLDADEYPHLPQIEEHHAIQIPTDLLKNLIRQTVFAVSTSETRPILTGVNWKVEQSELLCTATDSHRLALRKAKLDIPEDRSYNVVIPGKSLTELSKILDDNQELVDIVITETQVLFKAKNVLFFSRLLDGNYPDTTSLIPQDSKTEIIVNTKEFLQAIDRASLLAREGRNNVVKLSAKPAESIEISSNSPEIGKVVEAIVADQIEGEELNISFSPKYMLDALKVLEGAEIRVSFTGAMRPFLIRTPNDETIVQLILPVRTY
- binding [3]: binds

B3: PolY1 (T18 or T25 fusion) (protein, UniProt P54545 1-414)
chain: MPGKSRIIFHIDMNSFYASVEMAYDPALRGKPVAVAGNVKERKGIVVTCSYEARARGVKTTMPVWQAKRHCPELIVLPPNFDRYRNSSRAMFTILREYTDLVEPVSIDEGYMDMTDTPYSSRALETAKEIQSRLQKELLLPSSIGIAPNKFLAKMASDMKKPLGITILRKRQVPDILWPLPVGEMHGVGKKTAEKLKGLGIHTIGELAAADEHSLKRLLGINGPRLKNKANGIHHAPVDPERIYEFKSVGNSSTLSHDSSDEEELLGVFRKLAASVSDRLQRKEVMASKLFIMIRYADWRTITRSTTLRNPIDQKNDILKEAEHLFFKHWNKNPVRLLGITGTDLVEKEQAYKQLDLFSFNEDAKDEPIQQMMEKLNKKYGTKLIRKGATLKKEESKTKGTSFNKDFFQDEKKS
- binding [4]: no binding
